According to the supplement of paper PMC10849652:
Some of the results follow.

Amino acid sequences for entries named in this document (tags omitted). A change or cut given only in a name is not applied to a line headed by its entry.
UniProt O75781: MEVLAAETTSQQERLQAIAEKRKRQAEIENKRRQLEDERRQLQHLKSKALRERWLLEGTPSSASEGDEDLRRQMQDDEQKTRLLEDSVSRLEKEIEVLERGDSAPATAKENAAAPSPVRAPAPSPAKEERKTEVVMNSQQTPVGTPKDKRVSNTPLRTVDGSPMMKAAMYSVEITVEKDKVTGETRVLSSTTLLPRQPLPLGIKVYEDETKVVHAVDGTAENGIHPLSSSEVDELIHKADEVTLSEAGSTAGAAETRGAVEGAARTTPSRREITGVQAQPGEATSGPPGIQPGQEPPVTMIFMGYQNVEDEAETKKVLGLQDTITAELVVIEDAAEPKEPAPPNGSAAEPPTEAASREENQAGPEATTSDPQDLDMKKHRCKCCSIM
UniProt O95340: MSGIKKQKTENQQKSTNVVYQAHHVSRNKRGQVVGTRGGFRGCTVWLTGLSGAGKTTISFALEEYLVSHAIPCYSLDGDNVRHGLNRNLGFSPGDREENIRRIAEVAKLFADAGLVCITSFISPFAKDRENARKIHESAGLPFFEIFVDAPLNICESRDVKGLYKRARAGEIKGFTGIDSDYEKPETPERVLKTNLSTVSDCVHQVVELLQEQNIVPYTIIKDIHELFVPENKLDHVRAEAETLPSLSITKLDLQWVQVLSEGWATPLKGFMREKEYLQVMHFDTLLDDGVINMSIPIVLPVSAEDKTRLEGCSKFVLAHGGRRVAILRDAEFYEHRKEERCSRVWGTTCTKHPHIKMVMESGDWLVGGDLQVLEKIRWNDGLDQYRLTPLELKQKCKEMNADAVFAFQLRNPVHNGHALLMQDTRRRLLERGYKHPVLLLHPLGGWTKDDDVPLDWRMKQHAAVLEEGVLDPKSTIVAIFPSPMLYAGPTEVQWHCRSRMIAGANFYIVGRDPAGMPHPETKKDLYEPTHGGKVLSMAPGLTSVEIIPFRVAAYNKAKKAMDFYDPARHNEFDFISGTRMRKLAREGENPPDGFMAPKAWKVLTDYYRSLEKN
UniProt Q9BZ23: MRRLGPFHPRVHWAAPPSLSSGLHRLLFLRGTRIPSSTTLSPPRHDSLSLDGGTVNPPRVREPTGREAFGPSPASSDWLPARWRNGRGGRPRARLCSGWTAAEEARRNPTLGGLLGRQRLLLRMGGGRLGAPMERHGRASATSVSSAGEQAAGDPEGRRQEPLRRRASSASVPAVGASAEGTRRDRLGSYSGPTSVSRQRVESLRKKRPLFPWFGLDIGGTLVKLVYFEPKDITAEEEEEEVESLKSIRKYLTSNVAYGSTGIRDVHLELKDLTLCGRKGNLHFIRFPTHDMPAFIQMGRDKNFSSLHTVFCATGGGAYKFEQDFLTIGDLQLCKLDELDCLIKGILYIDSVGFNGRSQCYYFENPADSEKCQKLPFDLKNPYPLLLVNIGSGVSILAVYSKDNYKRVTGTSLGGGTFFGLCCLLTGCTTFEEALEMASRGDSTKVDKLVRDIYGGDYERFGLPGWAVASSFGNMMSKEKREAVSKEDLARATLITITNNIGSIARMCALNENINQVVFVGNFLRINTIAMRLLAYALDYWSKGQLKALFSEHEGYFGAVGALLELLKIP
UniProt Q8N7B6: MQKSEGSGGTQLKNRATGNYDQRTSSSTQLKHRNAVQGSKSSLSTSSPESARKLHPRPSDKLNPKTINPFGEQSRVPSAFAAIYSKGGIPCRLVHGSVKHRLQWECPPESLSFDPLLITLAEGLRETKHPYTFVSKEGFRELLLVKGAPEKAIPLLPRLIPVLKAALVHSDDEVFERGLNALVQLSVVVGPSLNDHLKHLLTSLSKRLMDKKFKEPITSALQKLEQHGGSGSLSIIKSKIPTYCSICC
UniProt O60829: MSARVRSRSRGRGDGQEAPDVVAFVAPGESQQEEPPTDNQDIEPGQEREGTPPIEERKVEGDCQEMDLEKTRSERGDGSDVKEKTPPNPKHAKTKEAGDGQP
UniProt O60890: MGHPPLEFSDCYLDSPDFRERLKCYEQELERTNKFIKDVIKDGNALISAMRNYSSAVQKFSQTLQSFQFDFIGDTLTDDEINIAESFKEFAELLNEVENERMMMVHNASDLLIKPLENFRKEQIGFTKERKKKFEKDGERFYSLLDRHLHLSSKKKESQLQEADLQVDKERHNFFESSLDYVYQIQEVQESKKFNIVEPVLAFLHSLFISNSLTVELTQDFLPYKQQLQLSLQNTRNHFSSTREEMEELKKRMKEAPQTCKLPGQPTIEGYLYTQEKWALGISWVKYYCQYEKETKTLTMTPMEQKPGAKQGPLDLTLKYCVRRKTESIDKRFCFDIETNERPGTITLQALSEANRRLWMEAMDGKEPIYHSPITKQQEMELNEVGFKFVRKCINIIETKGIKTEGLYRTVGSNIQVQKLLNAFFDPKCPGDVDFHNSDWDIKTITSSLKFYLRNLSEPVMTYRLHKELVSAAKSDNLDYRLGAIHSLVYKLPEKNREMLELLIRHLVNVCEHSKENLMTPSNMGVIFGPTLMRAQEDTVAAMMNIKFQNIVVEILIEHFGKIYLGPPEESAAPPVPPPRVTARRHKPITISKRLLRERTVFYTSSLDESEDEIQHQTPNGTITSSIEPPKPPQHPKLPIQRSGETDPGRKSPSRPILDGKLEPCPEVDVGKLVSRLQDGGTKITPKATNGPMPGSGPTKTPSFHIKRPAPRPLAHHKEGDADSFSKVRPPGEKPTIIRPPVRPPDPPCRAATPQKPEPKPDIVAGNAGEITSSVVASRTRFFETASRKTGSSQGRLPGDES
UniProt Q86VP3, whole entry, looked up: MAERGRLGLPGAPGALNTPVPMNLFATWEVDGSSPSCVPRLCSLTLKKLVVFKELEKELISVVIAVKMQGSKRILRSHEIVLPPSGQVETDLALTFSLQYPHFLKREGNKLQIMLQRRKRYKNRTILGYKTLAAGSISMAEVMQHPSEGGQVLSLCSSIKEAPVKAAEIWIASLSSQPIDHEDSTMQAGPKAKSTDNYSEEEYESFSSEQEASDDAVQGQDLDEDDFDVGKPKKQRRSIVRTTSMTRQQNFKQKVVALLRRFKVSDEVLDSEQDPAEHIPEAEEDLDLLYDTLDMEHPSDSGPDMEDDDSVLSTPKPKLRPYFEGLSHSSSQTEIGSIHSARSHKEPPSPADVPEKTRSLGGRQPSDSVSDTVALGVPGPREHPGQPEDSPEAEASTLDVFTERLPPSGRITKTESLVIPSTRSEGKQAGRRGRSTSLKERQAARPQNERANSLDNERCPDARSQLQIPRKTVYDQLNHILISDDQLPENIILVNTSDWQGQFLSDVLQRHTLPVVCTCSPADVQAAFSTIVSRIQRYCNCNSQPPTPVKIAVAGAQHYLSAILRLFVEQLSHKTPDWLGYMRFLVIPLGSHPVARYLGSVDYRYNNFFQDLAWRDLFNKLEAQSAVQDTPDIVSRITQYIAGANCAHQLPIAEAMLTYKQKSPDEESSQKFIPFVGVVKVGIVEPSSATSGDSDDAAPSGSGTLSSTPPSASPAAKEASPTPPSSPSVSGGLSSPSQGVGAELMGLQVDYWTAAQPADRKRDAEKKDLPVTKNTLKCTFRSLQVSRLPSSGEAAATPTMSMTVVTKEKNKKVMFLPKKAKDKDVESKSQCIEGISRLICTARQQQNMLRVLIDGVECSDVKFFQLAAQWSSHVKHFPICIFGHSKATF
UniProt Q9GZY0: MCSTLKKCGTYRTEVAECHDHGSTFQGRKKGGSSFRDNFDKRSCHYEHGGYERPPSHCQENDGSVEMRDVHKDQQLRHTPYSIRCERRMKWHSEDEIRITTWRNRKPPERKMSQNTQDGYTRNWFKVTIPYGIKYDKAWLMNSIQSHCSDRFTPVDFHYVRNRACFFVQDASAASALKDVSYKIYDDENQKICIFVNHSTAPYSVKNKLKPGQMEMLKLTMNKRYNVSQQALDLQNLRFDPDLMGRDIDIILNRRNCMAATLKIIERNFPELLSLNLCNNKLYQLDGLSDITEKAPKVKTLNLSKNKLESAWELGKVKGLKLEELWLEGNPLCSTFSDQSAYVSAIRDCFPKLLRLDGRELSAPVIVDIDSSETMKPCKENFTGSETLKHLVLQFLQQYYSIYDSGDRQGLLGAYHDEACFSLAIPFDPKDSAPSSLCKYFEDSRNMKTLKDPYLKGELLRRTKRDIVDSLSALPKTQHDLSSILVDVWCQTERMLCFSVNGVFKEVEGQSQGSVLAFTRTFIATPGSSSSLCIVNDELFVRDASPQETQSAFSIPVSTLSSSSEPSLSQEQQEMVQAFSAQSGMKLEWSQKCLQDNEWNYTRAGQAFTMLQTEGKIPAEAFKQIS
UniProt Q96D31, whole entry, looked up: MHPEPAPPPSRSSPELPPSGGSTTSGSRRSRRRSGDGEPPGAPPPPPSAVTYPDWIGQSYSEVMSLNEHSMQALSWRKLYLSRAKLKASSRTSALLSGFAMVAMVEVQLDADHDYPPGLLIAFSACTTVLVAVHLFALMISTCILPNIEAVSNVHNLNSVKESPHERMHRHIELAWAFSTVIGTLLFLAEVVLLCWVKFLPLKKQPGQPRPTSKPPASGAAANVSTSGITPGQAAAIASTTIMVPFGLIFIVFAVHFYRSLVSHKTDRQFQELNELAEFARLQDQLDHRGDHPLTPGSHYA
UniProt Q86WK9: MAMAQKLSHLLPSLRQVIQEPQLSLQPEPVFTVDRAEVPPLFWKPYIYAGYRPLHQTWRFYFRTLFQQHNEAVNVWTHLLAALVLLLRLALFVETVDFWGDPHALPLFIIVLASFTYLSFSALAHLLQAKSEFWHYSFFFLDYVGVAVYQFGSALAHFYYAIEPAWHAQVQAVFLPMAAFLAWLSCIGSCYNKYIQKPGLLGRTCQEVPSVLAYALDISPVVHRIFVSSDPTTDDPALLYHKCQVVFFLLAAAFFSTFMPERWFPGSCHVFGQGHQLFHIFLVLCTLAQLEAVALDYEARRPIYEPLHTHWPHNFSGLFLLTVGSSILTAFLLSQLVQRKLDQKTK
UniProt Q13438: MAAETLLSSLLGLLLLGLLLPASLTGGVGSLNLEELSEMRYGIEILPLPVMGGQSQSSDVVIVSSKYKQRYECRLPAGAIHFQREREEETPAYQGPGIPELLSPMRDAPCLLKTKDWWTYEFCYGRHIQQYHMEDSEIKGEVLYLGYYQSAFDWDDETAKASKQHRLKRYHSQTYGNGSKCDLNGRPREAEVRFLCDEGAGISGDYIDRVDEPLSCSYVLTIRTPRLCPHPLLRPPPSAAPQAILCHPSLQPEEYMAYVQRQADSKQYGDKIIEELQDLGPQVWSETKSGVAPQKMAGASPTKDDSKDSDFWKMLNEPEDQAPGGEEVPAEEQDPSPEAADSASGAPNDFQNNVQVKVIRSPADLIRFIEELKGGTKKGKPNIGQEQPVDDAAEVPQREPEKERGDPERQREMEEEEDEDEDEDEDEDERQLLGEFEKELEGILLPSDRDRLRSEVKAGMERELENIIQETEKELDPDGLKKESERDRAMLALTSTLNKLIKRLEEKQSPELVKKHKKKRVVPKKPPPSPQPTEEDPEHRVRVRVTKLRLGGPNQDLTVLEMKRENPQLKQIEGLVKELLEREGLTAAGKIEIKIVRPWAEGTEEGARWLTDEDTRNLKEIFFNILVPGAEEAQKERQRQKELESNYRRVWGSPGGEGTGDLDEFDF
UniProt O75665: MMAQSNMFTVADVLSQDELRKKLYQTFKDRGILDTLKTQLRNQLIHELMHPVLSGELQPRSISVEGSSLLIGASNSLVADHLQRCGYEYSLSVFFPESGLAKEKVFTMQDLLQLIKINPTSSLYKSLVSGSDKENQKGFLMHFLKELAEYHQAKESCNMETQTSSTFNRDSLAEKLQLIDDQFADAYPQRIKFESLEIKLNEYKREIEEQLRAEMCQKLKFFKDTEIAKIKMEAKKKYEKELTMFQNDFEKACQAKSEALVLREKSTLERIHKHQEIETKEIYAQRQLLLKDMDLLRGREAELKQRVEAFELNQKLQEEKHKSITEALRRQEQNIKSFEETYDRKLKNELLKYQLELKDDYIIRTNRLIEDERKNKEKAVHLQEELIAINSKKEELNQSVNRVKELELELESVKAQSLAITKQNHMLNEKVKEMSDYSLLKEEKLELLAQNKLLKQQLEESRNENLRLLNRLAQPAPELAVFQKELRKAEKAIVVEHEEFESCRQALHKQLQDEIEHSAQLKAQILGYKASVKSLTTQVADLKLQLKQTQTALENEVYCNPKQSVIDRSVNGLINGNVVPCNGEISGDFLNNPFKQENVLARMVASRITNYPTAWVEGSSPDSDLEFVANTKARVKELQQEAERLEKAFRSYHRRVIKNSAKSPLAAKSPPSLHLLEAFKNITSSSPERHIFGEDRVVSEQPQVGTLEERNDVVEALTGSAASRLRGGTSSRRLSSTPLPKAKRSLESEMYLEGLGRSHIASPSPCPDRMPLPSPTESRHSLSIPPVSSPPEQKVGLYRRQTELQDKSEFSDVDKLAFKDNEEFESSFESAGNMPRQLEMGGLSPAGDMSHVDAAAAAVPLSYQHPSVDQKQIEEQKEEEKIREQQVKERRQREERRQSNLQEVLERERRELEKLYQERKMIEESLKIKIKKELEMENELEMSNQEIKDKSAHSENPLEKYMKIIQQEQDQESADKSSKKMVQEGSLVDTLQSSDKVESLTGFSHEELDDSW

What was measured:
Experiment in all cases: log2 fold change, soluble protein after heating vs DMSO (PISA); higher = thermal stabilisation; K562 lysate, 10 uM; active = over 0.2 and 3.5 SD of the protein, either way, in both replicates (recomputed)
[1] = compound: C#Cc1cccc(Nc2ncnc3cc(OCCOC)c(OCCOC)cc23)c1 [erlotinib]
Summary of the method: (§1)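 Pellets of K562 cells were dounce-homogenised in PBS pH 7.4 with 1 mM MgCl2, and the crude extract was held at 1 mg/mL protein for a 30 min treatment with 10 μM compound. Aliquots were heated for 3 min over 48°C-58°C and pooled before NP-40 was added to 0.5% at 4°C. The supernatant from 21,000xg for 90 min was quantified by TMTpro 16plex LC-MS/MS with channel sums equalised. Values are reported from duplicates as log-two fold change in thermal stability relative to solvent controls.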

[2] = compound: C/C(=N\NC(=O)C1=CC(=CC=C1)S(=O)(=O)N2CCOCC2)/C3=C(C=CC(=C3)Cl)O
Summary of the method: as §1

[3] = compound: C1=CC(=CC=C1C2=NC3=C(N2)C=C(C=C3)C(=O)N)OC4=CC=C(C=C4)Cl
Summary of the method: as §1

[4] = compound: C1=CC2=C(C=CC(=C2)/C=C\3/C(=O)NC(=NCC4=CC=CS4)S3)N=C1
Summary of the method: as §1

[5] = compound: C1=CC=C(C=C1)C2=NC(=C(N2)C3=CC=NC=C3)C4=CC(=C(C=C4)Cl)O
Summary of the method: as §1

[6] = compound: C1=CC=C2C(=C1)C3=NNC4=CC=CC(=C43)C2=O
Summary of the method: as §1

[7] = compound: C1CCN(C1)C(=O)NC2=CC=CC(=C2)NC3=NC=C(C(=N3)NCCC4=CN=CN4)Br
Summary of the method: as §1

[8] = compound: C1CN(CCC1(CC2=CC=C(C=C2)Cl)N)C3=NC=NC4=C3C=CN4
Summary of the method: as §1

[9] = compound: C1COCCN1CCN2C3=CC=CC=C3N=C2NC(=O)C4=CC(=CC=C4)[N+](=O)[O-] [IRAK-1-4 Inhibitor I]
Summary of the method: as §1

[10] = compound: C1=CC2=NC=CN=C2C=C1/C=C/3\C(=O)NC(=O)S3
Summary of the method: as §1

Measured: log2 fold change

PAGE2B (UniProt Q5JRK9)
inactive: [1] 0.056 | [2] 0.038 | [3] -0.033 | [4] -0.085 | [5] -0.021 | [6] 0.093 | [7] 0.055 | [8] 0.055 | [9] 0.148

PAPOLA (UniProt P51003)
inactive: [1] -0.004 | [2] -0.028 | [3] 0.016 | [4] -0.004 | [10] 0.006 | [5] 0.01 | [6] 0 | [7] -0.003 | [8] 0.019 | [9] -0.018

OSTC (UniProt Q9NRP0)
inactive: [1] 0.084 | [2] -0.248 | [3] -0.091 | [4] 0.087 | [10] 0.033 | [5] -0.04 | [6] 0.154 | [7] -0.13 | [8] 0.137 | [9] 0.211

PALM (UniProt O75781)
inactive: [1] -0.001 | [2] -0.017 | [3] -0.003 | [4] -0.004 | [10] -0.066 | [6] -0.035 | [7] -0.027 | [8] -0.001

OTUD6B (UniProt Q8N6M0)
inactive: [1] 0.024 | [2] 0.04 | [3] 0.072 | [4] 0.034 | [10] 0.017 | [5] -0.006 | [6] -0.026 | [7] 0.009 | [8] 0.016 | [9] -0.008

PAGE1 (UniProt O75459)
inactive: [1] 0.004 | [2] -0.028 | [3] 0.089 | [4] -0.03 | [10] -0.007 | [5] -0.001 | [6] -0.075 | [7] 0.056 | [8] -0.045 | [9] -0.022

OGFOD2 (UniProt Q6N063)
inactive: [1] 0.034 | [2] -0.151 | [3] -0.093 | [4] -0.074 | [10] 0.022 | [5] -0.034 | [6] 0.001 | [7] 0.003 | [8] 0.006 | [9] -0.04

PAICS (UniProt P22234)
inactive: [1] -0.02 | [2] -0.001 | [3] 0.013 | [4] -0.048 | [10] -0.02 | [5] -0.005 | [6] 0.012 | [7] 0.001 | [8] -0.03 | [9] 0.014

OCIAD1 (UniProt Q9NX40)
inactive: [1] 0.006 | [2] 0.047 | [3] 0.018 | [4] 0.001 | [10] 0.002 | [5] 0.024 | [6] 0.003 | [7] -0.008 | [8] 0.019 | [9] 0.02

PAOX (UniProt Q6QHF9)
inactive: [10] 0.005 | [5] 0.002 | [9] 0.079

PAPSS2 isoform 2 (UniProt O95340)
inactive: [2] 0.113 | [4] 0.044 | [10] 0.021 | [6] -0.152 | [7] -0.045 | [8] -0.075

OAS3 (UniProt Q9Y6K5)
inactive: [1] -0.19 | [3] -0.031 | [5] 0.261 | [7] -0.036 | [8] -0.059 | [9] 0.11

OGG1 isoform 4 (UniProt O15527)
inactive: [1] 0.246 | [3] -0.073 | [7] -0.078 | [8] 0.123

OSGEPL1 (UniProt Q9H4B0)
inactive: [2] -0.169 | [4] -0.157 | [10] -0.009 | [6] 0.104 | [7] 0.031 | [8] 0.062

PANK2 (UniProt Q9BZ23)
inactive: [2] -0.012 | [4] -0.019 | [10] 0.011 | [5] -0.078 | [6] -0.044 | [7] -0.008 | [8] -0.06 | [9] 0.14

PACRGL (UniProt Q8N7B6)
inactive: [7] -0.056 | [8] 0.05

NUP214, A0A494C1F2
inactive: [1] 0.04 | [3] 0.057 | [5] -0.265 | [9] 0.176

PAQR4 (UniProt Q8N4S7)
inactive: [1] 0.138 | [3] -0.003

PABPN1 (UniProt Q86U42)
inactive: [10] 0.08 | [5] 0.032 | [7] -0.156 | [8] -0.068 | [9] 0.011

OAF (UniProt Q86UD1)
inactive: [1] 0.174 | [3] -0.092 | [5] -0.198 | [9] 0.042

PAGE4 (UniProt O60829)
inactive: [1] -0.423 | [3] 0.098 | [10] 0.034 | [5] 0.015 | [7] -0.068 | [8] -0.095 | [9] -0.034

OBSCN isoform 6 (UniProt Q5VST9)
inactive: [1] -0.016 | [3] -0.091

Looked up one by one from above (two):
PAPOLA (UniProt P51003)
inactive: [1] -0.004 | [2] -0.028 | [3] 0.016 | [4] -0.004 | [10] 0.006 | [5] 0.01 | [6] 0 | [7] -0.003 | [8] 0.019 | [9] -0.018

OAS3 (UniProt Q9Y6K5)
inactive: [1] -0.19 | [3] -0.031 | [5] 0.261 | [7] -0.036 | [8] -0.059 | [9] 0.11

(continued)

OCIAD1 (UniProt D6RDK6)
inactive: [2] -0.087 | [4] -0.108 | [6] -0.151 | [7] -0.05 | [8] -0.005

OPHN1 (UniProt O60890)
inactive: [10] 0.047 | [5] -0.032 | [7] -0.127 | [8] -0.011 | [9] 0.104

NXPE1 (UniProt F5H0Y6)
inactive: [10] -0.056

PALM isoform 2 (UniProt O75781)
inactive: [1] 0.006 | [3] 0.09

OCIAD1 (UniProt D6RF01)
inactive: [10] -0.188

OXR1 isoform 2 (UniProt Q8N573)
inactive: [5] 0.004 | [9] 0.036

PACS2 isoform 2 (UniProt Q86VP3)
inactive: [1] -0.043 | [3] -0.012 | [5] -0.057 | [7] -0.098 | [8] 0.038 | [9] 0.083

NUP35 (UniProt Q8NFH5)
inactive: [2] 0.203 | [4] 0.298 | [10] 0.01 | [5] -0.073 | [6] -0.314 | [7] 0.205 | [8] -0.028 | [9] -0.008

P2RY1 (UniProt P47900)
inactive: [1] -0.014 | [3] -0.07 | [10] 0.148 | [5] 0.023 | [7] -0.024 | [8] 0.094 | [9] 0.07

NUP214 isoform 4 (UniProt P35658)
inactive: [1] 0.212 | [3] 0.239 | [10] -0.023 | [5] 0.004 | [9] 0.173

PABPC1 (UniProt H0YAR2)
inactive: [1] -0.008 | [3] 0.065 | [10] -0.178 | [5] 0.008 | [9] 0.028

OXLD1 (UniProt Q5BKU9)
inactive: [5] 0.06 | [9] 0.063

OSBPL1A (UniProt Q9BXW6)
inactive: [1] 0.235 | [3] 0.205 | [10] 0.038

NXF2 (UniProt Q9GZY0)
inactive: [1] 0 | [3] -0.073

ORAI1 (UniProt Q96D31)
inactive: [1] 0.057 | [3] 0.159 | [10] 0.198 | [5] -0.129 | [7] -0.081 | [8] 0.058 | [9] 0.06

PAQR7 (UniProt Q86WK9)
inactive: [1] 0.02 | [3] 0.184

ORC1 (UniProt Q13415)
inactive: [7] 0.216 | [8] 0.05

OS9 isoform 7 (UniProt Q13438)
inactive: [1] 0.024 | [3] -0.176

OFD1 (UniProt O75665)
inactive: [2] 0.012 | [4] 0.129 | [10] 0.031 | [5] 0.049 | [6] -0.029 | [7] -0.018 | [8] -0.087 | [9] -0.167

OSBPL9 (UniProt E9PLH0)
inactive: [1] -0.021 | [3] 0.215 | [10] 0
